Results as given in the supplement of paper PMC6411743.
± gives the standard deviation of the averaged measurements. This is a selection; strong and weak results do not stand in their true shares. Most values lie at the level of the controls, where differences are scatter.

Sequences of proteins named here, by UniProt entry; tags and fusion partners are left off. A change or cut given only in a name is not applied to a line headed by its entry.
UniProt Q70J99: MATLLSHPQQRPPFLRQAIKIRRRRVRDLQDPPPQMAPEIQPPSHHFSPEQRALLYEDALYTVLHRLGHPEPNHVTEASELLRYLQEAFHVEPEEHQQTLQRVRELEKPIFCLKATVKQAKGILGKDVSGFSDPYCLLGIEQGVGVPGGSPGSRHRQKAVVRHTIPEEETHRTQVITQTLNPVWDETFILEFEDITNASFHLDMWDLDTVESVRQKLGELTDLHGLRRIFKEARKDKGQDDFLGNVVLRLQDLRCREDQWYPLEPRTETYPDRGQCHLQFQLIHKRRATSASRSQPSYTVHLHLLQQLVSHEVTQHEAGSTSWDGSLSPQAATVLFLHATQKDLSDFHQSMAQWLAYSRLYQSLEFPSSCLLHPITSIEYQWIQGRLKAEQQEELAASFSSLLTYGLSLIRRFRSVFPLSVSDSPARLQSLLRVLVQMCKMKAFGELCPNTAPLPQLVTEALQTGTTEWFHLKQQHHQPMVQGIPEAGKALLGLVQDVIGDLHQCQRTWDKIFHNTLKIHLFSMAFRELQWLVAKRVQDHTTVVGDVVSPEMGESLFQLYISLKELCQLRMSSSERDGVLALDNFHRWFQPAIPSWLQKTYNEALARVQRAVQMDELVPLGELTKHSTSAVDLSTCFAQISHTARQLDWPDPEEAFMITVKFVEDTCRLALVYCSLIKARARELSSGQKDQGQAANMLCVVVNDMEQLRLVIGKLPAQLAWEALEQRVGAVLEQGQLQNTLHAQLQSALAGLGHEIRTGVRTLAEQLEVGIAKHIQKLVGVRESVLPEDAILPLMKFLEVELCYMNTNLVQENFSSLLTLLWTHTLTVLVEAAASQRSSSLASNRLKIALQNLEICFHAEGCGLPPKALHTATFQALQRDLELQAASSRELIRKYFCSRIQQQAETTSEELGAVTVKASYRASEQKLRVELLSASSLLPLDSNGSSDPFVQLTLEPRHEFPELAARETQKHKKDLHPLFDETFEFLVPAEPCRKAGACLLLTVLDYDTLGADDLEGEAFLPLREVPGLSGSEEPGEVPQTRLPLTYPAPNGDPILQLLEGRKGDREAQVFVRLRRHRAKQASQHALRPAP
UniProt Q9P107: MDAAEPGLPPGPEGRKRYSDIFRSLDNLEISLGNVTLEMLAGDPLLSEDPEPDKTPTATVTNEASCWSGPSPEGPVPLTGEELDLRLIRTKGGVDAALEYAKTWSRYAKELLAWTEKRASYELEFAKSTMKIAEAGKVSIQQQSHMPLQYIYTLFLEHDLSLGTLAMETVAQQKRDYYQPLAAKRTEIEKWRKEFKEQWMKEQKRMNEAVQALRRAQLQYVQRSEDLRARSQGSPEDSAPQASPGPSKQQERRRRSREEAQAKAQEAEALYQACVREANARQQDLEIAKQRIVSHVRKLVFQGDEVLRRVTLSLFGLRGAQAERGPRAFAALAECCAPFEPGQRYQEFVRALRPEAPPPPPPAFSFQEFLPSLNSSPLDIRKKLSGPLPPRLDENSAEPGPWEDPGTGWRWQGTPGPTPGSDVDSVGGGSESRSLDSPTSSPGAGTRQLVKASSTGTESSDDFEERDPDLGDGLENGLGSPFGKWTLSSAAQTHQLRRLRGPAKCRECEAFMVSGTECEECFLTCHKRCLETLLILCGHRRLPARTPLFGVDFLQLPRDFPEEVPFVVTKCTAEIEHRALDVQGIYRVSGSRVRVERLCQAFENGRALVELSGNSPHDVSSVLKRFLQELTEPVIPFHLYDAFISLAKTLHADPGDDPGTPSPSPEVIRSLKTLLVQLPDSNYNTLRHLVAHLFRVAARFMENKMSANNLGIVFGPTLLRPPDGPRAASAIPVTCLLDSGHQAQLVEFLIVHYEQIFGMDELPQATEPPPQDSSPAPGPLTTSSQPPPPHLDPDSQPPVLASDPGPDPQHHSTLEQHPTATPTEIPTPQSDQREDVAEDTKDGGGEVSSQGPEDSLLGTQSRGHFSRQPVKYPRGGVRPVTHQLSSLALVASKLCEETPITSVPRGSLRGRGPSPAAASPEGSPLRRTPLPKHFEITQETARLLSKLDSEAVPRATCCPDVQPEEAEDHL
UniProt Q8IWI9: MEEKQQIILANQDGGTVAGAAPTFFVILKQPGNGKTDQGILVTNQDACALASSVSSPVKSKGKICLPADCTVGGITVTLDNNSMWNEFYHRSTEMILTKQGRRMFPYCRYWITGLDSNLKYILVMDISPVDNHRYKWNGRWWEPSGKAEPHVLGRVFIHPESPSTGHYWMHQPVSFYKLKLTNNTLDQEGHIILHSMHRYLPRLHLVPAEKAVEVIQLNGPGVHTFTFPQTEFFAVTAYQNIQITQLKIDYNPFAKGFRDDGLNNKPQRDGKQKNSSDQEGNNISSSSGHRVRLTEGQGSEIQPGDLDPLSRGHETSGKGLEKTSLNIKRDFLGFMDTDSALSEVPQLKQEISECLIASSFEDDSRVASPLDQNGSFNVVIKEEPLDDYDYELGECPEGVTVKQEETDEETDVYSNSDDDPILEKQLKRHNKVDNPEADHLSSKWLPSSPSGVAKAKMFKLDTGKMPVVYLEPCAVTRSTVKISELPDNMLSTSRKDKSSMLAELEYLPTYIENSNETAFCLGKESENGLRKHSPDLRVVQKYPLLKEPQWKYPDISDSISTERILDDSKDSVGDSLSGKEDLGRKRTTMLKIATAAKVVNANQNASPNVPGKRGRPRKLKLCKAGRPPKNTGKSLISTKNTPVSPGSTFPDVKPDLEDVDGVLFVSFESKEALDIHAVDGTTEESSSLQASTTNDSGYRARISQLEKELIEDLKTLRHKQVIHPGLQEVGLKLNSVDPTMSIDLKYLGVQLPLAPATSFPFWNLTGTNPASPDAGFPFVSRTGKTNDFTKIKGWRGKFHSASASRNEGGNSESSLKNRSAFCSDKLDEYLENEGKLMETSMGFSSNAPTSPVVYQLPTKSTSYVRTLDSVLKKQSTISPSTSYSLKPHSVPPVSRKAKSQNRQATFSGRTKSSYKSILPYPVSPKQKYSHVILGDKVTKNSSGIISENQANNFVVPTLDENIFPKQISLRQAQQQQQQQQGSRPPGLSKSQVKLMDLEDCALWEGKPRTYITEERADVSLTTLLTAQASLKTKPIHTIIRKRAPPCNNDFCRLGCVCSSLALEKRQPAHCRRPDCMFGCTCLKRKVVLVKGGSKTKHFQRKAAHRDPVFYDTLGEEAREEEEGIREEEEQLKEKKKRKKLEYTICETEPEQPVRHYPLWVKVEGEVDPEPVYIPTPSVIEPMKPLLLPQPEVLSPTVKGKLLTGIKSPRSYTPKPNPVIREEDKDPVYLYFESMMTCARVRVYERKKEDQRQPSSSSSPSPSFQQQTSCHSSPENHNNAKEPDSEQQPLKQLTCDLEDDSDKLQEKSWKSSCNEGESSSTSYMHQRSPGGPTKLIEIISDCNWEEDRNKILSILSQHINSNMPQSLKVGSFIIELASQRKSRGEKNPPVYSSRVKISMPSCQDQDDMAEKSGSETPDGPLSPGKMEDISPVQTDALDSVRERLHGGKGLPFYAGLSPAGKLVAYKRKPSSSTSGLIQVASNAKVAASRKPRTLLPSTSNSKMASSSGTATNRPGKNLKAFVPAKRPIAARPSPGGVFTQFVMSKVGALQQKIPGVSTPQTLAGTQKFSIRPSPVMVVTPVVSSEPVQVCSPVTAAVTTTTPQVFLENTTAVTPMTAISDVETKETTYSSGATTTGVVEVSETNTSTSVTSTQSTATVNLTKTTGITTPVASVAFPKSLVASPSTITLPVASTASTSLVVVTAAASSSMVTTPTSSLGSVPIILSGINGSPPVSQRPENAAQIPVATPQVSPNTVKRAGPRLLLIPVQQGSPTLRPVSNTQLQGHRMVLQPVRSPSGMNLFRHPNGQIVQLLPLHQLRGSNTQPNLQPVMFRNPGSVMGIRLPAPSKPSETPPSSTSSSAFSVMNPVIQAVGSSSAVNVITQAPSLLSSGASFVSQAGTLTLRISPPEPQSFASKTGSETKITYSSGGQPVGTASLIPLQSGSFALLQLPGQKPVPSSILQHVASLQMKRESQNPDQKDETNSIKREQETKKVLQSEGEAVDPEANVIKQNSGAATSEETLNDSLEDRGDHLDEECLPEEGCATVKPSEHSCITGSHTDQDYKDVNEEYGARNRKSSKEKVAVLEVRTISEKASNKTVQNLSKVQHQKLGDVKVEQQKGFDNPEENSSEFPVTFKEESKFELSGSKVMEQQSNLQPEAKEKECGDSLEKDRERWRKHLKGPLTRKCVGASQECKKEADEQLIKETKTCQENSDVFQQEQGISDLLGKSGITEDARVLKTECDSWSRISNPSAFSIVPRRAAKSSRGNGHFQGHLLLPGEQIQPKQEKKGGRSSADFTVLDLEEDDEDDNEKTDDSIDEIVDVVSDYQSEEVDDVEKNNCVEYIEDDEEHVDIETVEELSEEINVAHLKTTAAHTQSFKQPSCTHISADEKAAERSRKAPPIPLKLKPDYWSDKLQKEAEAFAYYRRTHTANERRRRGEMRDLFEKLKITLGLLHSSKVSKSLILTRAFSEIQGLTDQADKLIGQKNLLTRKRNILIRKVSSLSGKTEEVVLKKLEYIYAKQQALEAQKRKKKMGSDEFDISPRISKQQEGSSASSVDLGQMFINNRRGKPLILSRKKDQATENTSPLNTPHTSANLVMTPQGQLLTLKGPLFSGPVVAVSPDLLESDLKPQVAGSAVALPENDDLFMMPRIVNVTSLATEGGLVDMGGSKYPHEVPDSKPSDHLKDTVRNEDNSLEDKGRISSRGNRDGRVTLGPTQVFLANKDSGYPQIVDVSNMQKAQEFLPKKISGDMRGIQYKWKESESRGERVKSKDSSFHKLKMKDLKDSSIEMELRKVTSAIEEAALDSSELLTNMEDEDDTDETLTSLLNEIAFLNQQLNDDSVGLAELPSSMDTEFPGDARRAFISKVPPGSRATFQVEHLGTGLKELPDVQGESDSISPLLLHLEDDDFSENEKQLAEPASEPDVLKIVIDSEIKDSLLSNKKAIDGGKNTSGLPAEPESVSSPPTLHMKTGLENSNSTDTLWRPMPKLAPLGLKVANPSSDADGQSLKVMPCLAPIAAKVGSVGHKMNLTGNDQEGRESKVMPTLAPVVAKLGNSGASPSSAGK
UniProt Q9NX61: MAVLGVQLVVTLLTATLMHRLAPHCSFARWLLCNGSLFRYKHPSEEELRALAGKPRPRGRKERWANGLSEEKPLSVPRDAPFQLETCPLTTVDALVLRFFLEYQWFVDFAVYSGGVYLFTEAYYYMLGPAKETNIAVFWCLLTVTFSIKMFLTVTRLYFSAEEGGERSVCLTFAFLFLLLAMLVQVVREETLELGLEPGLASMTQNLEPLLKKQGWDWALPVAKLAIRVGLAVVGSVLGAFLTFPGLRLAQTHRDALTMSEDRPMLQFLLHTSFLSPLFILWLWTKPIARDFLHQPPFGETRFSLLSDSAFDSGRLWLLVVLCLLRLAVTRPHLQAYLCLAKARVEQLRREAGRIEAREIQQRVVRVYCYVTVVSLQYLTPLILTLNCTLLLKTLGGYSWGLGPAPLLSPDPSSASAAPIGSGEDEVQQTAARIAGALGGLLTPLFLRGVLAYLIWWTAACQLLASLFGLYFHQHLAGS
UniProt O95644: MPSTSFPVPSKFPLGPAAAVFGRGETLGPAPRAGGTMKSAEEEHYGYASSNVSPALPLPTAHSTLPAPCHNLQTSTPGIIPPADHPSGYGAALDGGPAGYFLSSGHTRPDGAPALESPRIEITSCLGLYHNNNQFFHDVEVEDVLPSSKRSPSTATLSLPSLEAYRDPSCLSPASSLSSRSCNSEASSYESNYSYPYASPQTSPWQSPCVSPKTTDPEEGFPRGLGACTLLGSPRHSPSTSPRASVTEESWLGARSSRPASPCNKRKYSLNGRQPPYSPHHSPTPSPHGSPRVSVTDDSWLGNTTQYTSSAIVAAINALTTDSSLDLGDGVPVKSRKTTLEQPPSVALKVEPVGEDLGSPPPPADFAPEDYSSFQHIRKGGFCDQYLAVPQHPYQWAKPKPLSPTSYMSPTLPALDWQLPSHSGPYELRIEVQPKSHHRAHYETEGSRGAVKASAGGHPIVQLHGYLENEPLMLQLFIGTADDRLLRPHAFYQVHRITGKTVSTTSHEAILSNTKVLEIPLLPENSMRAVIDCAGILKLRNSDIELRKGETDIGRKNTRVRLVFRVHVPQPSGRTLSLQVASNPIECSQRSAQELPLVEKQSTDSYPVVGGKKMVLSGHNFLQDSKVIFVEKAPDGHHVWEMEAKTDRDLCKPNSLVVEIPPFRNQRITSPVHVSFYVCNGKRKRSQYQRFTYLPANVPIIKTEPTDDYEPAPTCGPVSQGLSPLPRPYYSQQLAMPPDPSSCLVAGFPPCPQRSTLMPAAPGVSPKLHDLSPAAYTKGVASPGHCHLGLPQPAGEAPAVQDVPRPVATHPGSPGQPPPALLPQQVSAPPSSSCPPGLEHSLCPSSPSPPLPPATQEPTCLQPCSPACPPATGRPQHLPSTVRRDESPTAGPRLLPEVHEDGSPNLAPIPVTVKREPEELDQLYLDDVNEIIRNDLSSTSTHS

Compound: Nc1ncnc2c1ncn2[C@@H]1O[C@H](COP(=O)(O)OP(=O)(O)OP(=O)(O)O)[C@@H](O)[C@H]1O [adenosine triphosphate]
Test: NP40-soluble protein abundance relative to vehicle (solubility fold change) (ratio); higher = more soluble protein in presence of ATP
Summary of the method: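 Each value is a fold change relative to the detergent-processed vehicle, calculated per replicate from vsn-normalised intensities. Jurkat crude lysate received eight concentrations (0.1 to 10 mM) for 10 min at room temperature and 3 min at 37 °C, then was solubilised in 0.8% NP40 with benzonase (60 min, 4 °C). The ultracentrifuged supernatant was TMT-labelled and run by LC-MS/MS in three independent experiments.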

Target | NP40-soluble protein abundance (concentration: 0.1mM) | NP40-soluble protein abundance (concentration: 0.5mM)
K7ENQ8 and related entries (UniProt Q15438) | 1.04 ± 0.088 | 1.02 ± 0.059
H0YD93 and related entries (UniProt Q8WXA3) | 0.959 ± 0.087 | 0.978 ± 0.12
H3BQM0 and related entries (UniProt Q8NDF8) | 1.01 ± 0.11 | 1.03 ± 0.1
H0YCX2 and related entries (UniProt Q96PV7) | 1.05 ± 0.075 | 1.11 ± 0.2
H0YBI6 and related entries (UniProt Q86VQ6) | 0.996 ± 0.092 | 1.07 ± 0.11
H7BY55 and related entries (UniProt P08174) | 0.995 ± 0.058 | 0.986 ± 0.076
J3QRU1 and related entries (UniProt P07947) | 1.02 ± 0.088 | 1.07 ± 0.099
J3KQH6 and related entries (UniProt P78364) | 0.93 ± 0.05 | 0.974 ± 0.02
K7ENF0 and related entries (UniProt O43776) | 1.02 ± 0.055 | 1 ± 0.06
K7EQ37 and related entries (UniProt Q70J99) | 1.06 ± 0.08 | 1.03 ± 0.042
I3L4B6 and related entries (UniProt Q67FW5) | 1.04 ± 0.082 | 1.072 ± 0.0035
H7C1W4 and related entries (UniProt Q93075+H7C1W4) | 0.954 ± 0.14 | 0.978 ± 0.033
K7EJC2 and related entries (UniProt Q9P107) | 1.04 ± 0.043 | 1.02 ± 0.022
H0Y714 and related entries (UniProt Q96G21) | 0.944 ± 0.14 | 0.982 ± 0.19
J3QRS3 and related entries (UniProt P19105+O14950+J3QRS3) | 0.902 ± 0.12 | 0.899 ± 0.15
H0YLX2 and related entries (UniProt Q2KHR2) | 0.988 ± 0.051 | 0.955 ± 0.019

Single values from the entries so far:
Value for H0YLX2 and related entries (UniProt Q2KHR2) under NP40-soluble protein abundance (concentration: 0.5mM): 0.955 ± 0.019
Value for H3BQM0 and related entries (UniProt Q8NDF8) under NP40-soluble protein abundance (concentration: 0.5mM): 1.03 ± 0.1
Value for K7EQ37 and related entries (UniProt Q70J99) under NP40-soluble protein abundance (concentration: 0.1mM): 1.06 ± 0.08

Further records

Target | NP40-soluble protein abundance (concentration: 0.1mM) | NP40-soluble protein abundance (concentration: 0.5mM)
I3L072 and related entries (UniProt Q9BSJ5) | 1.01 ± 0.087 | 0.996 ± 0.081
H7BYP4 and related entries (UniProt Q9H930) | 0.965 ± 0.12 | 0.931 ± 0.15
H7BZJ3 and related entries (UniProt P30101) | 0.936 ± 0.09 | 0.961 ± 0.14
K7ERP1 and related entries (UniProt Q9GZN7) | 1.06 ± 0.029 | 0.992 ± 0.045
H3BU53 and related entries (UniProt Q8IWI9) | 1.01 ± 0.047 | 1.01 ± 0.057
K7EPA3 and related entries (UniProt Q9NX61) | 1.04 ± 0.062 | 1 ± 0.034
H7C2F9 and related entries (UniProt Q15032) | 0.998 ± 0.085 | 0.962 ± 0.059
K7ER53 and related entries (UniProt O95644) | 0.987 ± 0.096 | 1.04 ± 0.07
I3L3S0 and related entries (UniProt Q9Y5R8) | 0.996 ± 0.064 | 0.921 ± 0.094
H3BPZ0 and related entries (UniProt Q6PCT2) | 1.06 ± 0.09 | 1.04 ± 0.088
J3KP26 and related entries (UniProt Q86W74) | 1.05 ± 0.04 | 0.975 ± 0.074
K7EIU8 and related entries (UniProt Q13485) | 0.998 ± 0.031 | 1.01 ± 0.078
M0QYZ2 and related entries (UniProt P53680) | 1.02 ± 0.089 | 1.08 ± 0.092
K4DI83 and related entries (UniProt Q9HCN3) | 1.01 ± 0.041 | 1.02 ± 0.19
H0Y2P2 and related entries (UniProt Q96IV0) | 0.977 ± 0.04 | 0.969 ± 0.032
